These results are taken from publication PMC11540436.

Amino acid sequences for entries named in this document (tags omitted).
UniProt Q6EVK6: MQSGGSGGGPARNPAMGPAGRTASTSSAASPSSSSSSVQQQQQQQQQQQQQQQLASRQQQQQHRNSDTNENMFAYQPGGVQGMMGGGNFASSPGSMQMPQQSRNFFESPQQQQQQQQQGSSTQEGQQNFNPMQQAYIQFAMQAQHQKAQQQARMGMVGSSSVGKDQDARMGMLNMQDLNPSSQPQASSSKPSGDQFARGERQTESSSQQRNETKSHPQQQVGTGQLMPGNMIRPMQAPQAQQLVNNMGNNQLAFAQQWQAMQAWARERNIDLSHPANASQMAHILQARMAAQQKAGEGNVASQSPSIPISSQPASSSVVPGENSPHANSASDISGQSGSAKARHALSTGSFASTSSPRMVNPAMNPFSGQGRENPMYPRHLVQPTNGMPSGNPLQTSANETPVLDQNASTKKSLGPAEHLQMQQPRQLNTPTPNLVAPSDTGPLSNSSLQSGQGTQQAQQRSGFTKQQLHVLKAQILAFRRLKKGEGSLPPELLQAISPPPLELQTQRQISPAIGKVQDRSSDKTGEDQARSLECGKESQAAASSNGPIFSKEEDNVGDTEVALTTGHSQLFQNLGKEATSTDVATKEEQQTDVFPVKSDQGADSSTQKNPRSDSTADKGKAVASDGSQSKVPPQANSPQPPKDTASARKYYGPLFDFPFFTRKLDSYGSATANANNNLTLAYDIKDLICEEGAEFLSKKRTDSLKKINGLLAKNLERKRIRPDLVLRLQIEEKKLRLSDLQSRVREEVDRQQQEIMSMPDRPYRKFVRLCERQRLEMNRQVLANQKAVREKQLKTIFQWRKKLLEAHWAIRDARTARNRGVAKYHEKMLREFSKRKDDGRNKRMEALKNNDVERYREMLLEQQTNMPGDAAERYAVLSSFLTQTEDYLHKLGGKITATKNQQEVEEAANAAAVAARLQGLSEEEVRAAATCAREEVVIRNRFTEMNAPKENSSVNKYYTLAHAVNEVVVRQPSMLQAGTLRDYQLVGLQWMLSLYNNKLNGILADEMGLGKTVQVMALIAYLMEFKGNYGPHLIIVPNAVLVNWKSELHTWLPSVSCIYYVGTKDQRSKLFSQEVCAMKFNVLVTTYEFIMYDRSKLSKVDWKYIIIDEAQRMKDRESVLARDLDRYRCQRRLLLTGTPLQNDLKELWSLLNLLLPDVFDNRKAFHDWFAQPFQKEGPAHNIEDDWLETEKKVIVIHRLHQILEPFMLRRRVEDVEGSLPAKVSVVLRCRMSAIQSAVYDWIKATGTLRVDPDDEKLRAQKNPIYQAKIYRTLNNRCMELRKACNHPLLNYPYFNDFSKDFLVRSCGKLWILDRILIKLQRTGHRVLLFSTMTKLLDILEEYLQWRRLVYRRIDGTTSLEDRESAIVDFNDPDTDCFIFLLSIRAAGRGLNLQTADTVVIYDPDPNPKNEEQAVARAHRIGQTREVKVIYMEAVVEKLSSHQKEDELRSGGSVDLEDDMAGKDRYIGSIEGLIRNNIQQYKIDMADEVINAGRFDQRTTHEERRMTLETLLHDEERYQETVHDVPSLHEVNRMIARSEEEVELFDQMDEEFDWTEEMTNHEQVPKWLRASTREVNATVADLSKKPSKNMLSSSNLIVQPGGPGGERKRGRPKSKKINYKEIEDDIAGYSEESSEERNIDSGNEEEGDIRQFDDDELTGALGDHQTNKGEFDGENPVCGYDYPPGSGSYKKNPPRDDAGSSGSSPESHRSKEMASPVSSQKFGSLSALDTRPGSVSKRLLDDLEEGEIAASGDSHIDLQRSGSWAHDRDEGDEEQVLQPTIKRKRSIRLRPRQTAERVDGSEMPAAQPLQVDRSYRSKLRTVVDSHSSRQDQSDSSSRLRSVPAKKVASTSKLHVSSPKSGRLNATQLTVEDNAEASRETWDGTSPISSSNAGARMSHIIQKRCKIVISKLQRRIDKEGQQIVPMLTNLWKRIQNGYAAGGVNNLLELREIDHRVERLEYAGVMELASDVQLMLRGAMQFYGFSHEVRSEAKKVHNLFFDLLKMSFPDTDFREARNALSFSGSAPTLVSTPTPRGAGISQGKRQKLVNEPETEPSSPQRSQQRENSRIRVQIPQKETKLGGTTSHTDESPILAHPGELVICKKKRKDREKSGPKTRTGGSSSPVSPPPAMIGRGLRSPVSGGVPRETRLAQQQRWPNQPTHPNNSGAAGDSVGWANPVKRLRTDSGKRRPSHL
UniProt F4JLS1: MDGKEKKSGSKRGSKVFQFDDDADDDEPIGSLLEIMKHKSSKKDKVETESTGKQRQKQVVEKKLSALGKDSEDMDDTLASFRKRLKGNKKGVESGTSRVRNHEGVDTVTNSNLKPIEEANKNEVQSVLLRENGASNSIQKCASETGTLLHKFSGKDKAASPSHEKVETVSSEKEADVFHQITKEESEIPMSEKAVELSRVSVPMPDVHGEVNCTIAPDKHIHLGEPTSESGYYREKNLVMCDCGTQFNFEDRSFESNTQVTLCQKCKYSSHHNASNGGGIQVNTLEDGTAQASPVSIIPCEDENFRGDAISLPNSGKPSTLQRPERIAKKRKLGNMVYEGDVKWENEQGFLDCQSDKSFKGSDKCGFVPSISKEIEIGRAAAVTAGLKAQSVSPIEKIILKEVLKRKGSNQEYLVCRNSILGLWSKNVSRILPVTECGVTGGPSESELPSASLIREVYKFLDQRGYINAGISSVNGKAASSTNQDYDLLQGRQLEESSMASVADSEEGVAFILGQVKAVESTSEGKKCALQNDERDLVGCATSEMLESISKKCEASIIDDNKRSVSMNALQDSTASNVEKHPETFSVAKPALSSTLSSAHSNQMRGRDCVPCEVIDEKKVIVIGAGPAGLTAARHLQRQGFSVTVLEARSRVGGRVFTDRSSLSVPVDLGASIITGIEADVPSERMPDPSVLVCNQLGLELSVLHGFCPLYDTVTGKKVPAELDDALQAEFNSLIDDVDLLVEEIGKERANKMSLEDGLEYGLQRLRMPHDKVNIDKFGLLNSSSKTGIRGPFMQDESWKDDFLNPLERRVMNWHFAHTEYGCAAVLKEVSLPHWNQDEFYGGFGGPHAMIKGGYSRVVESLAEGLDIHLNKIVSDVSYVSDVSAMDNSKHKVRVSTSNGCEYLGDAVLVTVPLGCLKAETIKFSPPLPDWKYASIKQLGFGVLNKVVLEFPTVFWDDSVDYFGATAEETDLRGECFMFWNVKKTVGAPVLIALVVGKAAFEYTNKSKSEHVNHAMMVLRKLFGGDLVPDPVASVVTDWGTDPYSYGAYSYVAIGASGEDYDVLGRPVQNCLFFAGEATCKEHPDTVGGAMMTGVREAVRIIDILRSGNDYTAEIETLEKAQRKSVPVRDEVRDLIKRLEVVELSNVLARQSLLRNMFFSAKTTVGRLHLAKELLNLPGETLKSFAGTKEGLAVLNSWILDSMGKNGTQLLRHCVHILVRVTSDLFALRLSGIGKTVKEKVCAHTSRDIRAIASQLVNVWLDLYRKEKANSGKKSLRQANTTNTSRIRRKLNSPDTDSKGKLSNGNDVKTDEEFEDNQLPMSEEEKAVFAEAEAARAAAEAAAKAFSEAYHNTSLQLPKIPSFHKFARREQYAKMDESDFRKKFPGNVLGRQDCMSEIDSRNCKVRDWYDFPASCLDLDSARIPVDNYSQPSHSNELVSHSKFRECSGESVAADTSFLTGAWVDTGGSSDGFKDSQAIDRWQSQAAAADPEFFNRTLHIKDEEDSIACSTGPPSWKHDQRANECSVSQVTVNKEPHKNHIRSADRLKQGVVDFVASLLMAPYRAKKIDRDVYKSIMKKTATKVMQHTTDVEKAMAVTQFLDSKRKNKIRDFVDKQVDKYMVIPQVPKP
UniProt Q9C5T4: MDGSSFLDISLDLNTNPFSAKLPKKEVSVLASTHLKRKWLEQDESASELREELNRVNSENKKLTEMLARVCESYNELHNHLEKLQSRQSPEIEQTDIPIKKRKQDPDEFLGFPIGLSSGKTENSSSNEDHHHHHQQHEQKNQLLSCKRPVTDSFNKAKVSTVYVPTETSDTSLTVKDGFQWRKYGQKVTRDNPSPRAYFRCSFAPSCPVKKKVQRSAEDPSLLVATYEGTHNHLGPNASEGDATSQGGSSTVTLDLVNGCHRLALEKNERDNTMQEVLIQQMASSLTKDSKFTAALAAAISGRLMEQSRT

First the molecules themselves.
T1: NPR1-3xHA-TurboID (Arabidopsis thaliana), P93002
T1 chain: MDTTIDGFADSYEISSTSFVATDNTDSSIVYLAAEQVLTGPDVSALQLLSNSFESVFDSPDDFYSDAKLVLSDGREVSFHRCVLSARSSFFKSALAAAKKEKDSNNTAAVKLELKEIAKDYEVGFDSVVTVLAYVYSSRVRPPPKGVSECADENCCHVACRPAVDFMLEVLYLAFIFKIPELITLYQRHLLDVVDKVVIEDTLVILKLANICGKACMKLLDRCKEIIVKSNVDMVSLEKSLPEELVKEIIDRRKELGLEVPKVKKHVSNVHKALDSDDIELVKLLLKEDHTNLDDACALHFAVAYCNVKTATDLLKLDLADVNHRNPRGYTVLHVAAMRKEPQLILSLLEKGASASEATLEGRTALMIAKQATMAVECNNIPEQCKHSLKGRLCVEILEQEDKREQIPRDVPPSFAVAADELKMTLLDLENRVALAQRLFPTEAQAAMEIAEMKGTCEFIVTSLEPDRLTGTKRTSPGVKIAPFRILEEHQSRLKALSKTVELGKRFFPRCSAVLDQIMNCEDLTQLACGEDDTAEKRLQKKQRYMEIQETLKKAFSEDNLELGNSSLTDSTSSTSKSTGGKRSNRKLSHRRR

B1: NIM1-interacting 1 (protein, UniProt Q9FNZ5 1-142)
chain: MYPKQFSLYNYSLETMSKDENVESKETIRVDKRVREDEEEEEEKKIDTFFKLIKHYQEARKRRREELAENSGVVRRKSNGGERSGIVVPAFQPEDFSQCRTGLKPPLMFVSDHKEENTKVEQEEDQTEERNEDKALDLNLAL
B2: NPR1-like protein 4 (protein, UniProt Q5ICL9 1-574)
chain: MAATAIEPSSSISFTSSHLSNPSPVVTTYHSAANLEELSSNLEQLLTNPDCDYTDAEIIIEEEANPVSVHRCVLAARSKFFLDLFKKDKDSSEKKPKYQMKDLLPYGNVGREAFLHFLSYIYTGRLKPFPIEVSTCVDSVCAHDSCKPAIDFAVELMYASFVFQIPDLVSSFQRKLRNYVEKSLVENVLPILLVAFHCDLTQLLDQCIERVARSDLDRFCIEKELPLEVLEKIKQLRVKSVNIPEVEDKSIERTGKVLKALDSDDVELVKLLLTESDITLDQANGLHYAVAYSDPKVVTQVLDLDMADVNFRNSRGYTVLHIAAMRREPTIIIPLIQKGANASDFTFDGRSAVNICRRLTRPKDYHTKTSRKEPSKYRLCIDILEREIRRNPLVSGDTPTCSHSMPEDLQMRLLYLEKRVGLAQLFFPAEANVAMDVANVEGTSECTGLLTPPPSNDTTENLGKVDLNETPYVQTKRMLTRMKALMKTVETGRRYFPSCYEVLDKYMDQYMDEEIPDMSYPEKGTVKERRQKRMRYNELKNDVKKAYSKDKVARSCLSSSSPASSLREALENPT
B3: NPR1-like protein 3, Q8L746 1-586 (protein)
chain: MATLTEPSSSLSFTSSHFSYGSIGSNHFSSSSASNPEVVSLTKLSSNLEQLLSNSDCDYSDAEIIVDGVPVGVHRCILAARSKFFQDLFKKEKKISKTEKPKYQLREMLPYGAVAHEAFLYFLSYIYTGRLKPFPLEVSTCVDPVCSHDCCRPAIDFVVQLMYASSVLQVPELVSSFQRRLCNFVEKTLVENVLPILMVAFNCKLTQLLDQCIERVARSDLYRFCIEKEVPPEVAEKIKQLRLISPQDEETSPKISEKLLERIGKILKALDSDDVELVKLLLTESDITLDQANGLHYSVVYSDPKVVAEILALDMGDVNYRNSRGYTVLHFAAMRREPSIIISLIDKGANASEFTSDGRSAVNILRRLTNPKDYHTKTAKGRESSKARLCIDILEREIRKNPMVLDTPMCSISMPEDLQMRLLYLEKRVGLAQLFFPTEAKVAMDIGNVEGTSEFTGLSPPSSGLTGNLSQVDLNETPHMQTQRLLTRMVALMKTVETGRRFFPYGSEVLDKYMAEYIDDDILDDFHFEKGSTHERRLKRMRYRELKDDVQKAYSKDKESKIARSCLSASSSPSSSSIRDDLHNTT

These are yes or no findings as the source states them, for the method shown. In cells and extracts the contact can be indirect. These calls come from enrichment with a bait or labelling near it, and not all partners need be listed.

One experiment concerns the target NPR1-3xHA-TurboID (Arabidopsis thaliana) (UniProt P93002). Put plainly: proximity labelling; TurboID in stable transgenic Arabidopsis; 1 mM SA, 1 h later 50 mM biotin for 3 h; streptavidin beads, mild and harsh washes; label-free quantification LC-MS/MS against the control YFP-YFP-TbID.
Conditions: not given
“BRAHMA (endogenous) (from UniProt Q6EVK6 1-2193)”: the binding entry is on record as “binds”. On the same count and under the same terms, the same measure for “LSD1-like 3 (endogenous) (from UniProt F4JLS1 1-1628)”: “binds”; for WRKY18 (from UniProt Q9C5T4 1-310): “binds”; for B1: “binds”. For B2, the binding result was “binds”.

A further experiment concerns the target T1, NPR1-3xHA-TurboID (Arabidopsis …). The experiment is described as above. Particulars: remark: other sources report otherwise.
In the case of B3, the binding entry was “binds”.
